Some of the results follow.

The chains behind the UniProt entries cited, without tags or fusion partners.
UniProt Q0JBA9, entry or part of it: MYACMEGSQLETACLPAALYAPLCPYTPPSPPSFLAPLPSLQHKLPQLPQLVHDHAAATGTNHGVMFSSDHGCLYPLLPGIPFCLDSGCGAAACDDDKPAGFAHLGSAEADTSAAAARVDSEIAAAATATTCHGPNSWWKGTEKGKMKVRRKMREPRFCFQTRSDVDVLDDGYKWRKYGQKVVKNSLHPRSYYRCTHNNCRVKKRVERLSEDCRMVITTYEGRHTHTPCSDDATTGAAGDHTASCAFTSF

In the test the target is OsWRKY34 (Oryza sativa, UniProt Q0JBA9 1-250). The experiment in a line: protein-binding microarray (RPBM); PBS, 2% BSA, 51.3 ng/ul salmon testes DNA, 50 uM zinc acetate, 200 nM TF, 25 C, 1 h; high values mean tight binding. As to conditions: protein: recombinant; tags: N-terminal polyhistidine and DsRed monomer fusion (pET32a); label: CyDye5-dUTP incorporated in the synthesized complementary strand; 3' TTTTT single-stranded linker to array surface; dsDNA, one strand shown. In short, it runs like this:
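For the binding signal, per-feature fluorescence intensity was read in arbitrary units on an Axon 4000B scanner. Before scanning, a 2% BSA-blocked custom Agilent array made double-stranded with Cy5-dUTP was washed after 1 h at 25 °C with 200 nM protein and 50 µM zinc acetate. The proteins were Ni–NTA-purified transcription factors with N-terminal polyhistidine and DsRed fusions, expressed in E. coli BL21-CodonPlus.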
As for “CTCTGCTTTAATCGCACTCGCATCCCACTGCTTTGCTTTCCGGAGTCACCTAGTGCAG”, the binding signal was 11000 fluorescence intensity (a.u.). For “GTTCACCGCATATTCGTTTTTCTCCAATGCGTAGCAGTAACGGAGTCACCTAGTGCAG”, the binding signal is 10700 fluorescence intensity (a.u.). Next, “TCTTCCTCTGCGTGGGCCGGGGCGGAGGGAGGGAGGGGAACGGAGTCACCTAGTGCAG”: 16300 fluorescence intensity (a.u.); “GGGCGGAGGCGGGGATCGCGGCGGGAGGGGTGGATCCATGCGGAGTCACCTAGTGCAG”: 17400 fluorescence intensity (a.u.); “AGTCCGTGCTGCAGATCTGCTCTTTTCTCTTCGTTTAACTCGGAGTCACCTAGTGCAG”: 10300 fluorescence intensity (a.u.). With “CCTCCTTTGTTCTTGCTCCTCTTTGCACGCAAAGAATCGGCGGAGTCACCTAGTGCAG” the figure was 9110 fluorescence intensity (a.u.); with “GCTTGAACTGCCTTTTAAAATTTATCATTACTGGATTTTGCGGAGTCACCTAGTGCAG”, 8910 fluorescence intensity (a.u.); with “CTAGTAGTATAGGGAGGGAGCGGGCGGGTGATCGCTAGGCCGGAGTCACCTAGTGCAG”, 8190 fluorescence intensity (a.u.). With “CAAAATTTTCATTTTTTGGGGTGCCTTTTTCACCTTCTTGCGGAGTCACCTAGTGCAG” the figure was 9750 fluorescence intensity (a.u.). “TTTATTTAAATATTTCTTTTCACTTCCTTGCTCACTGACTCGGAGTCACCTAGTGCAG”: the binding signal is 11000 fluorescence intensity (a.u.).

Turning to “GTCAAGAATGTGCTAAAAAGTCAACGGTGTCAAACAGTTTCGGAGTCACCTAGTGCAG”, the binding signal was 10600 fluorescence intensity (a.u.). With “GTACTCGTATTTTGGTCAACTATTTAATTTATCTCTCATTCGGAGTCACCTAGTGCAG”, the binding signal is 8990 fluorescence intensity (a.u.). With “CTGTTATTGTACCTGTTCTAATAGCTCACCTTGTTTTACGCGGAGTCACCTAGTGCAG” the figure was 10800 fluorescence intensity (a.u.). With “TACCTCACTGCCTTTTGCCTGCCAGGGGATATCTAAGACACGGAGTCACCTAGTGCAG” the figure was 9250 fluorescence intensity (a.u.); with “CTTCGTTTTCCTATTTACGACATTACAGGGTTTGTAATCTCGGAGTCACCTAGTGCAG”, 9130 fluorescence intensity (a.u.); with “CTGAAGTGAGGGAGGGGAGGAGGTGGTGGTGGTGGGGAAGCGGAGTCACCTAGTGCAG”, 15600 fluorescence intensity (a.u.). As to “CTCCTCTTCGATCTTGTTGTTCTTCAACGCAGATTTTGTTCGGAGTCACCTAGTGCAG”, the binding signal was 8460 fluorescence intensity (a.u.). With “CCTTTCACCCGCCCAAACTCATCCATCCATCGATCGCCCTCGGAGTCACCTAGTGCAG” the figure was 8560 fluorescence intensity (a.u.). With “TCACTTCTGCAACCTGGTCAGCCAATTCATCCCGTGCTCACGGAGTCACCTAGTGCAG” the figure was 10300 fluorescence intensity (a.u.); with “TCCACCACAGCCACCATCGATCTGCAGCCAGCCAGCCAACCGGAGTCACCTAGTGCAG”, 9130 fluorescence intensity (a.u.); with “CCTCGACCTCCACCGCCGCATCCTCGCGCTCGTCCGCGAGCGGAGTCACCTAGTGCAG”, 10200 fluorescence intensity (a.u.). With “ACATGATTATATTCCGATTAAAACCATTAGTACTTCGTCTCGGAGTCACCTAGTGCAG” the figure was 8440 fluorescence intensity (a.u.); with “TCCTTTCTTCAGGATCGCAGCATTTTGCTGTCATTATTTCCGGAGTCACCTAGTGCAG”, 8710 fluorescence intensity (a.u.).

As to “GAAGTGTTGTGGTTACAAATTAGTTTTTGACTTTTATCTCCGGAGTCACCTAGTGCAG”, the binding signal is 10400 fluorescence intensity (a.u.). Next, “TTACTGCCGCCGCATCCTCGCCGGAGCCGCTTCTTCTCCGCGGAGTCACCTAGTGCAG”: 10900 fluorescence intensity (a.u.); “TTCCGAATTCTGCACCGGCCATCATATGCTGGGGCGGGCGCGGAGTCACCTAGTGCAG”: 9390 fluorescence intensity (a.u.); “CTCCTCTACTAGCTCGTCTCCATCTCTTCTACTCGTCCAGCGGAGTCACCTAGTGCAG”: 8260 fluorescence intensity (a.u.). With “TCCCTTCTTACAGGCCAACCTCGCAAAGTTGCTGCTCCTCCGGAGTCACCTAGTGCAG” the figure was 10200 fluorescence intensity (a.u.); with “CTCCCACCGCTCTCTCTCTCTCTCTCTCTCTCTCTCTCTCCGGAGTCACCTAGTGCAG”, 11200 fluorescence intensity (a.u.). With “ACTCATCGCCACGTTGCTAATTTAGCTGACTTTGTCAACTCGGAGTCACCTAGTGCAG” the figure was 9600 fluorescence intensity (a.u.); with “CGACGAACAGACGCGCGCCTTCTTAATGCAATCACCATCACGGAGTCACCTAGTGCAG”, 8600 fluorescence intensity (a.u.); with “GGCCGCTCACTAGCCTGCCGCTGCCGCTCTGGTTCTCCAACGGAGTCACCTAGTGCAG”, 8840 fluorescence intensity (a.u.). In the case of “ATCTACCATCCGACGCCCCGCAACCAAACCCGCCGCTGTACGGAGTCACCTAGTGCAG”, the binding signal was 9320 fluorescence intensity (a.u.). Next, “CGTCGACCCGTTTTCTCTCCTCTTCTCGATCGTTATATCGCGGAGTCACCTAGTGCAG”: 8290 fluorescence intensity (a.u.). Next, “TCGCACGTGCTGATCTCCGGCGCCACCACCTACCGCCATTCGGAGTCACCTAGTGCAG”: 8180 fluorescence intensity (a.u.); “CTTACATGTGGTCCTCATGAGGCAATGCATCTTGGACACCCGGAGTCACCTAGTGCAG”: 9820 fluorescence intensity (a.u.); “AAACTTCACACGTTGTAATGCACAGACATTTTTTCTAGTCCGGAGTCACCTAGTGCAG”: 10100 fluorescence intensity (a.u.). “ACCACCATCACTAGCTCTCGTAAAAAATCTCAACTTTTTGCGGAGTCACCTAGTGCAG”: the binding signal was 8470 fluorescence intensity (a.u.). As for “TTCTGTTTGGGTTTTGATTTGTTTCGGTTTGGCTGTTCTTCGGAGTCACCTAGTGCAG”, the binding signal is 10600 fluorescence intensity (a.u.). With “GGCACCGTGCTCTGGCTGACCACTTCGCGCCGCCGCCCTCCGGAGTCACCTAGTGCAG” the figure was 9900 fluorescence intensity (a.u.). Next, “CGCTTCTCCGCTTTTCGGGCTGTCGTGGATGCTGTCGGGGCGGAGTCACCTAGTGCAG”: 9480 fluorescence intensity (a.u.). Next, “GCCTACATGCCCCATTTTCAATCTCTTTCGATACCATACTCGGAGTCACCTAGTGCAG”: 8930 fluorescence intensity (a.u.); “ACCCGAGATCTGATTCACTACCGCCGCCGGATCAAGCCACCGGAGTCACCTAGTGCAG”: 8320 fluorescence intensity (a.u.). Consider “CAGATTTTTGCCGCCCATACCCTCGATTCCTCGTGATCTCCGGAGTCACCTAGTGCAG”, for which the binding signal was 9730 fluorescence intensity (a.u.).

For the sequence “TGTCCTGTCCATTGCTACTCCTTGTATTACACTACATAATCGGAGTCACCTAGTGCAG”, the binding signal is 9380 fluorescence intensity (a.u.). Next, “CCTTACACTAACAGAGAGCTCTTCTTCTTCTTCTTCTTCTCGGAGTCACCTAGTGCAG”: 9040 fluorescence intensity (a.u.).

“GATCTCTTGCAGCTGCGCATCTGTGCATGCATCCACACTACGGAGTCACCTAGTGCAG”: the binding signal was 9260 fluorescence intensity (a.u.). For the sequence “ACCTCCACCGCGCCGCCGCCGCCGCTCCAGAGTCCAACGCCGGAGTCACCTAGTGCAG”, the binding signal is 8700 fluorescence intensity (a.u.). As to “ACTTTGTTATTGGTAATTTTCCTTGTGATTTGCTGGAAGTCGGAGTCACCTAGTGCAG”, the binding signal was 8620 fluorescence intensity (a.u.). With “ACACTACCTTAAAGAAACATCAGTGACATCTCCATCACTCCGGAGTCACCTAGTGCAG” the figure was 8750 fluorescence intensity (a.u.); with “TCCGCCTTTTACCACCCCATTATTCAAACGAACCTCGAAACGGAGTCACCTAGTGCAG”, 8350 fluorescence intensity (a.u.); with “GGTATTGTTGATACTTTCAGTTTTCGCATTTGTTCGCTTCCGGAGTCACCTAGTGCAG”, 9230 fluorescence intensity (a.u.).

With “TGGCTGCTCAGGGGCGGCGTTGGCGCGAGATGCGGAGGGGCGGAGTCACCTAGTGCAG”, the binding signal is 10100 fluorescence intensity (a.u.).

As for “ACACGCTCTCGAATCGAACCTTATCACTCTTGTCATAAATCGGAGTCACCTAGTGCAG”, the binding signal was 8310 fluorescence intensity (a.u.).

These data come from PMC7819943, “Rice protein-binding microarrays: a tool to detect cis-acting elements near promoter regions in rice”.
